Measured values: publication PMC4666660
Results are given in words; binding and its absence hold for the method and conditions named. In cells and extracts the contact can be indirect. Some entries that bind do so weakly or less than the wild type. For part of these data: Sequences can lack the tags named with a protein. Values belong to the binder of their own block, whether it stands above or below them.

What was measured:
[1] = target: T1, mCherryV5-Med22 (Drosophila) (UniProt Q9V439); test: co-IP; testis extracts of V5-MED22 or y.w. males, 200 pairs of testes per IP; immunoprecipitated with anti-V5, blotted with anti-MED26 or anti-MED17
T1 sequence: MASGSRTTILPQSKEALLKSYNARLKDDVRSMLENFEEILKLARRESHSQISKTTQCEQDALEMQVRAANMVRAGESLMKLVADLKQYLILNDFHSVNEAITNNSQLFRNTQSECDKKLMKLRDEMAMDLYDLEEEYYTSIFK

[2] = target: T2, TOPI-6MYC (Drosophila) (UniProt Q9VH70); test: co-IP; S2 cell extracts coexpressing MED22-3HA with or without the 6MYC-tagged partner; immunoprecipitated with anti-MYC, blotted with anti-HA
T2 sequence: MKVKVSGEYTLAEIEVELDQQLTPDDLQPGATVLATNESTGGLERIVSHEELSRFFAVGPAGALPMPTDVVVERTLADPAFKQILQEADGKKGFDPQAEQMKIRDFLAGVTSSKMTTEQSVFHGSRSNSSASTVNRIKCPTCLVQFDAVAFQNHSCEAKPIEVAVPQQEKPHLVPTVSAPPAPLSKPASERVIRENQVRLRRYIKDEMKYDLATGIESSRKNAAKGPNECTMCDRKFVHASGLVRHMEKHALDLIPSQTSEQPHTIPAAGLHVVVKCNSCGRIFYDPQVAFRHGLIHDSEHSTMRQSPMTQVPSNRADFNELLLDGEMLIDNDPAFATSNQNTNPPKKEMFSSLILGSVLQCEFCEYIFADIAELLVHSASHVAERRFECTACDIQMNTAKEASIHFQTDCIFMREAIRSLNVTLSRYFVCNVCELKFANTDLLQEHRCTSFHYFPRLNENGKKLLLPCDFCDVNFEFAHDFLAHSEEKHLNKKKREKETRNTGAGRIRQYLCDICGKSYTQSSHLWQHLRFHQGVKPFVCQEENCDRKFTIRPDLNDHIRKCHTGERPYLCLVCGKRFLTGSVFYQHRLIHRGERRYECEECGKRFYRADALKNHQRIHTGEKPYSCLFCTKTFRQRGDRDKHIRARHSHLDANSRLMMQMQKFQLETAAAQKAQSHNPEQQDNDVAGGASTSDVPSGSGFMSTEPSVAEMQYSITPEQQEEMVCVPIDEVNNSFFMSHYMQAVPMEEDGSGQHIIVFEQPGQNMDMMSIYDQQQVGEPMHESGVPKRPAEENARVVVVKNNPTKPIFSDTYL

binding [1]: binds
B1: MED26 (protein, UniProt Q9V4F9 1-1483)
chain: MNQIEIQELTTHLSQALDQNYDVVNMDAVLCVICALEGTTITKEQLEATRLAKYINQLRRRTKNEHLARRAKSLLKKWREMVGIQQTATENLAHPSQISSSQPALDLVKSPITSFITEPIAPSQQIVSDLHSNIDSAEPPLSGEHTLLHPNFSNLVNSIKDSDRHENIAITTLHTHKDRRHSHSIRSCHVASPQPIVIDHSVNSVINLTDDSTVKINEASVVIDIASDSDENDNNGSLNPKKLNSIVPAPLPIPSTPSSRQRKLKKEKRSKEREGQVATNTRFGAKASDGFQQAALTTDSEIFSLSNSSMSSIVSGDATSSYSQNKSRLNSNELTFTGRFKAVDHLFRSTESGKHKIDEYSAYDSNASCSRLSPSTVDEVKKAEHLFDAQLTNTTANQIPMSAVSIGYESNTRHEYLESDSPSQIPKRRGRKKGSKGVDALIAKESSSLSQQIFFGGSTVKKVKTTKELFNEIQSRKLSVSMQSSASNLSNSSTNRDLPSHTTFPRQTSSCSDTSMNSPHILETLSGSAIFASKIDDLGNTDSDTVTSDPSHDSNKSQEIKECTSLDSNSNSIQSLPLANNRENLIPTNVNDITTQLMHLIHSLNSPLSEIEIERVYQEKIIPCTCIVIEGVQGTLGESNNSTLDEQSYNAKISLNSKDNLSCHNQDNYSTSQRSVNGEVIDTQPKLVKSIFDLDFDDNDDPLYFIMDEIQKPIARADELKNNKSDTKNINFGASAQNASLNIIHFNDDAQQDNSNQERGKNETQNAIPAFTVHEDPDCLARQRFYIQTNKVTSFHINALHNYYIPNINGNWDSVESFTSFQSEHTIMDTMESYTVTNGADVVPKYGLLTSDRIRKDLSSLKSIKPYRVKNFTSLISPFLGVAKCLPTCRRARRRFKNFVNSSTANDKISNNFESLENMKTSFKNCNPLNVKIDGTTSAIYSHNENHVPMQVNTNVEQLPPSQSFSSNAISYNLLKLADDKVCHDGISDKSSNTGCQGNSPYSSSSSSSYSGRKEDQHIITKNLQNKNIQLNSRKSDMKRRKRIYLENDSKKKKHYRKRIKTAVNRTFSNLHRNLYSIDSENGMKNDYKNEYGNSNNEEYAIVQRPAGDGENCSNHIVLTIKKTPSKINSPANSMTAFSPPSTSDGANLQKSILDLRLEDTNISQSITEIPQKKDLSKTDRIVHQSRSSAYRRIFRKPDKSQTKFIDLDLKHLFHLKANSPCISANAKLHNKLFFPHELSRDNTSGIRERLINYSSSSSSSYDDDSEVENTSFLKKANVNKFSASNNRNLKTETETCAATAISEFKFESDEDSILTSLGDSDIDIQDEIQVINDKVDYCNDFQNNKMLESFNSIFVDSLRTNTKNASDNMGSSAHITSLESLKPENADAITRYCNNNNLGVNLSNELSNISAKPLKSFDSTMKLPSLGIEHCTGIKTSSDMASTNIAEKKLTRIQQFKEWHQVLQLRSYNNEPLIVLPYVLLE

binding [1]: binds
B2: MED17 (protein, UniProt Q9VEC1 1-642)
chain: MSNSVNISVETTCENQIREIGYDGTELYQPPPTLSESLAKCAARIDFSKTSLDDLKKEEKSAAAAADEDKDATQFQESLWPWDAVRNKLKDALTEICVLSDVISIAKDKRYLVLDPLLEEADDTKPIVQVYSRKKAISQAAQVLLSGAERLRNAHSEQRNRNVSDFHIELLRLRQNWRLKKVSNAIIGDLSYRTAGSKFGMSGTFEVTKAEETGDEDTASSSNSSSSVSGNNGMQLKASSALRVIVPAELQGVAYIKVITQKDQEDLCTAQLNLMGHGPNITAQVGVWQKTLEFAQNVLFCKELFAQLAREAIQLQAPIPHVVIGNQIRATLLPNIQLIISLCHSTTFDSSQPAPINDHDHVLEHSLHQLLREVHYKNSHHPFPHPASAPLGPTKKRMLAGPMAADRETLLDMTKSQTILEQIIAQAQHIFMRKRTQYVLDTLARDVKDPQIVSHWNAMNSPTMSCVKINIVTHGYDAIGRTSLVIHVKERSLKCICRDGRVMRLSYEPQELRDLILCQINSHQISCLISLARCMSWTVLSNSNHLGIGKVEPLGNASSCLLASPNSDRMIAVQIRCDPQIDVKVYIARSPRQDFFPSPLVPEKLWENLGGTFKEVRFDKIEGKSFLNKMEFLMASLTSNTA

binding [2]: binds
B3: MED22-3HA (protein, UniProt Q9V439 1-143)
chain: T1 sequence
